Results are given in words; binding and its absence hold for the method and conditions named. Binding seen in cells or lysates may run through a third protein. Some entries that bind do so weakly or less than the wild type. Tags and fused reporters may be left off the sequences shown.
Tests used:
Test in all cases: co-IP
[1] = target: T1, FLAG-PP6R1 (human) (UniProt Q9UPN7)
T1 sequence: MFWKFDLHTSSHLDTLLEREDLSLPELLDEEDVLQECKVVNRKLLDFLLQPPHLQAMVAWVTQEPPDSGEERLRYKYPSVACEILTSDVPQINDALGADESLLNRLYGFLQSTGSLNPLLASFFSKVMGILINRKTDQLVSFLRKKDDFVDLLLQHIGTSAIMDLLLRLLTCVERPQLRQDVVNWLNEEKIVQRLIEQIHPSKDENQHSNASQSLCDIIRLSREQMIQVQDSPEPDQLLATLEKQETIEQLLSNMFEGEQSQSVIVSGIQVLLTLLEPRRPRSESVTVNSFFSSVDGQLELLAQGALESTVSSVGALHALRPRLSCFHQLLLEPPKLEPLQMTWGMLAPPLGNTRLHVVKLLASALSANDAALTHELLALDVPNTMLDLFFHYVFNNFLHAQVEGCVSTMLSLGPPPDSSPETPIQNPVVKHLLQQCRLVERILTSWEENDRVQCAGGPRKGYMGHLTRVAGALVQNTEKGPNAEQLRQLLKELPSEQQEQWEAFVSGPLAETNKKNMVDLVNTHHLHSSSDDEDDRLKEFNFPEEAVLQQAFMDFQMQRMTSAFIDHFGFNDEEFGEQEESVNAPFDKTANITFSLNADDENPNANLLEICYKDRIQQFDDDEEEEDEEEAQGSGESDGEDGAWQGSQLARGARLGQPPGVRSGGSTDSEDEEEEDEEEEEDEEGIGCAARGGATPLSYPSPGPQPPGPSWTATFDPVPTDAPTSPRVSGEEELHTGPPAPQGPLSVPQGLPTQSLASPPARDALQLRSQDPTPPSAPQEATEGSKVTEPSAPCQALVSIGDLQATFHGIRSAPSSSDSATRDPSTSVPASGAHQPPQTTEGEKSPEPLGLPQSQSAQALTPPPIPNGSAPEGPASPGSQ

Sequences of proteins named here, by UniProt entry; tags and fusion partners are left off.
UniProt Q96S21, whole entry: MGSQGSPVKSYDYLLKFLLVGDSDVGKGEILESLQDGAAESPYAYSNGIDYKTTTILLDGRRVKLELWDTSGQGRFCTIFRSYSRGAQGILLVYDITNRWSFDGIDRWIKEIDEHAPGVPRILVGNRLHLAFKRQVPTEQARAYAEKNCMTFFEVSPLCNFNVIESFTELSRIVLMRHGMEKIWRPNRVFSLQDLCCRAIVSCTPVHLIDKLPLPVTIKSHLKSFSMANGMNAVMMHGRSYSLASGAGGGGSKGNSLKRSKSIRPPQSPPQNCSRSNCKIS

[2] = target: T2, FLAG-ANKRD52 (human) (UniProt Q8NB46)
T2 sequence: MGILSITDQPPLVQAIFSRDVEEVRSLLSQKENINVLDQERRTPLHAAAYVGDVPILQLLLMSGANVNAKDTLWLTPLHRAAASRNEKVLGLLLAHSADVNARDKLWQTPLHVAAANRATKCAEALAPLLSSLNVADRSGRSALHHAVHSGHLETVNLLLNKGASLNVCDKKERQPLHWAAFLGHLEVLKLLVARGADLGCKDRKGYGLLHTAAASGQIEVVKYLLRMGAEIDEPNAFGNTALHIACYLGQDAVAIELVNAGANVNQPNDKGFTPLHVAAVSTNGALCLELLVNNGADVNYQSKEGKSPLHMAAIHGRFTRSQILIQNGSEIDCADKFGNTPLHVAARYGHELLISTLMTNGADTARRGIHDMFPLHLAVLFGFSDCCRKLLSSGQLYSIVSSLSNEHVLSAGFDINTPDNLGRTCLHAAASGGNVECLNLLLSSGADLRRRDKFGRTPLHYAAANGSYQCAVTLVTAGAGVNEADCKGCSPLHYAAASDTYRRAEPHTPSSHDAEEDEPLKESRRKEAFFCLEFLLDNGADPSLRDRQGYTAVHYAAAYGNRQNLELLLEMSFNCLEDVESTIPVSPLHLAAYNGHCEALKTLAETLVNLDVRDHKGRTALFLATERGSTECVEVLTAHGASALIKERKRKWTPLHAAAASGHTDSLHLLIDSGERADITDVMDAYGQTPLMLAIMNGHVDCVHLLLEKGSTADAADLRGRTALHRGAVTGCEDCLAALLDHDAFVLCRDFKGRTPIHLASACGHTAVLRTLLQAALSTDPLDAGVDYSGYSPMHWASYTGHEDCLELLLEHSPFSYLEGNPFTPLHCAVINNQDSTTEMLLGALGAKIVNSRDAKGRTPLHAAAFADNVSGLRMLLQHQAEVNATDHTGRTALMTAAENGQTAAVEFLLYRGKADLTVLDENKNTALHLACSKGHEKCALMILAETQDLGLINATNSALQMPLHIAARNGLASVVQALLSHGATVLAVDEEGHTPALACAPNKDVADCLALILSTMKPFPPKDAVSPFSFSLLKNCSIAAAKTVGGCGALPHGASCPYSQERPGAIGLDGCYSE

[3] = target: T3, FLAG-PP6c (human) (UniProt O00743)
T3 sequence: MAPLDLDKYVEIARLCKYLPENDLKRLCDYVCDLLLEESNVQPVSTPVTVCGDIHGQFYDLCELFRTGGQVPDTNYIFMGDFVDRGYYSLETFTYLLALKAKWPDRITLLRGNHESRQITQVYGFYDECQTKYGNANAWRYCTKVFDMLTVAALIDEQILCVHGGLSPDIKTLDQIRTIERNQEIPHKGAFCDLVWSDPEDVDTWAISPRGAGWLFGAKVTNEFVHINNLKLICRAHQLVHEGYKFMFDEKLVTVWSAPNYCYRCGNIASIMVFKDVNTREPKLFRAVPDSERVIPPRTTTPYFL

[4] = target: T4, FLAG-PP6R1(518-881) (human) (UniProt Q9UPN7)
T4 sequence: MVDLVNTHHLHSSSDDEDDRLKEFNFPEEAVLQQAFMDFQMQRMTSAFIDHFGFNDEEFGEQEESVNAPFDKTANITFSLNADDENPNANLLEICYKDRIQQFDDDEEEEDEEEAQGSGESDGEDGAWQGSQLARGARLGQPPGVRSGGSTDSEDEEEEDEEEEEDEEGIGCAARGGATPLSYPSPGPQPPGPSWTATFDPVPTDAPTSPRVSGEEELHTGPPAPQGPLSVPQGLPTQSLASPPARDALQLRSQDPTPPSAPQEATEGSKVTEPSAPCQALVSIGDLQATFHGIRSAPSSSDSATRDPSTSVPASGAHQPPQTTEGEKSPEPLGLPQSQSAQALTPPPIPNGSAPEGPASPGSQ

binding [1]: binds
binding [2]: binds
binding [3]: binds
binding [4]: binds
Substance: HA-Rab40c (from UniProt Q96S21 1-281)

Reference: doi:10.1101/2021.12.06.471409
